According to article PMC4673504:
Results are given in words; binding and its absence hold for the method and conditions named. Binding seen in cells or lysates may run through a third protein. Some results given as binding are weak or reduced against the parent protein; the word gives no strength. Where a sequence is shown, tags or fusion partners need not be part of it.

By UniProt entry, the sequences of proteins in these tests, tags left out.
UniProt P50750: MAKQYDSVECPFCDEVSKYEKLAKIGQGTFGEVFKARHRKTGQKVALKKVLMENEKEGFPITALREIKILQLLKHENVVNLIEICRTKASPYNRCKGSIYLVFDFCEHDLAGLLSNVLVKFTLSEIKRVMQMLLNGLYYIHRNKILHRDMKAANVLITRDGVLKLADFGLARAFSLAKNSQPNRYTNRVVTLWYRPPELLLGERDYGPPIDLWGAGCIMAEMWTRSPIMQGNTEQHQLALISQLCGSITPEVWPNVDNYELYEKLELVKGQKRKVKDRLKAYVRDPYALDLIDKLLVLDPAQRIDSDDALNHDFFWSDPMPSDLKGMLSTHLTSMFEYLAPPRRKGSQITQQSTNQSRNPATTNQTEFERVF

B1: TAF1C (endogenous) (protein, UniProt Q15572 1-869)
chain: MDFPSSLRPALFLTGPLGLSDVPDLSFMCSWRDALTLPEAQPQNSENGALHVTKDLLWEPATPGPLPMLPPLIDPWDPGLTARDLLFRGGCRYRKRPRVVLDVTEQISRFLLDHGDVAFAPLGKLMLENFKLEGAGSRTKKKTVVSVKKLLQDLGGHQPWGCPWAYLSNRQRRFSILGGPILGTSVASHLAELLHEELVLRWEQLLLDEACTGGALAWVPGRTPQFGQLVYPAGGAQDRLHFQEVVLTPGDNPQFLGKPGRIQLQGPVRQVVTCTVQGESKALIYTFLPHWLTCYLTPGPFHPSSALLAVRSDYHCAVWKFGKQWQPTLLQAMQVEKGATGISLSPHLPGELAICSRSGAVCLWSPEDGLRQIYRDPETLVFRDSSSWRWADFTAHPRVLTVGDRTGVKMLDTQGPPGCGLLLFRLGAEASCQKGERVLLTQYLGHSSPKCLPPTLHLVCTQFSLYLVDERLPLVPMLKWNHGLPSPLLLARLLPPPRPSCVQPLLLGGQGGQLQLLHLAGEGASVPRLAGPPQSLPSRIDSLPAFPLLEPKIQWRLQERLKAPTIGLAAVVPPLPSAPTPGLVLFQLSAAGDVFYQQLRPQVDSSLRRDAGPPGDTQPDCHAPTASWTSQDTAGCSQWLKALLKVPLAPPVWTAPTFTHRQMLGSTELRREEEEGQRLGVLRKAMARGQLLLQRDLGSLPAAEPPPAPESGLEDKLSERLGEAWAGRGAAWWERQQGRTSEPGRQTRRPKRRTQLSSSFSLSGHVDPSEDTSSPHSPEWPPADALPLPPTTPPSQELTPDACAQGVPSEQRQMLRDYMAKLPPQRDTPGCATTPPHSQASSVRATRSQQHTPVLSSSQPLRKKPRMGF
B2: ENL (protein, UniProt Q03111 1-559)
chain: MDNQCTVQVRLELGHRAQLRKKPTTEGFTHDWMVFVRGPEQCDIQHFVEKVVFWLHDSFPKPRRVCKEPPYKVEESGYAGFIMPIEVHFKNKEEPRKVCFTYDLFLNLEGNPPVNHLRCEKLTFNNPTTEFRYKLLRAGGVMVMPEGADTVSRPSPDYPMLPTIPLSAFSDPKKTKPSHGSKDANKESSKTSKPHKVTKEHRERPRKDSESKSSSKELEREQAKSSKDTSRKLGEGRLPKEEKAPPPKAAFKEPKMALKETKLESTSPKGGPPPPPPPPPRASSKRPATADSPKPSAKKQKKSSSKGSRSAPGTSPRTSSSSSFSDKKPAKDKSSTRGEKVKAESEPREAKKALEVEESNSEDEASFKSESAQSSPSNSSSSSDSSSDSDFEPSQNHSQGPLRSMVEDLQSEESDEDDSSSGEEAAGKTNPGRDSRLSFSDSESDNSADSSLPSREPPPPQKPPPPNSKVSGRRSPESCSKPEKILKKGTYDKAYTDELVELHRRLMALRERNVLQQIVNLIEETGHFNVTNTTFDFDLFSLDETTVRKLQSCLEAVAT

target: T1, FLAG-tagged AF4 (human) (UniProt P51825); test: co-IP; fanChIP–WB: chromatin fraction of 293T or 293T–LUC cells (cytoskeleton buffer extraction, MNase, lysis buffer), anti-FLAG M2 beads, five washes, western blot; SL1 components endogenous or exogenously expressed (one by one or all together); for the MLL fusions with co-expressed xAF4 and MENIN-HA
T1 sequence: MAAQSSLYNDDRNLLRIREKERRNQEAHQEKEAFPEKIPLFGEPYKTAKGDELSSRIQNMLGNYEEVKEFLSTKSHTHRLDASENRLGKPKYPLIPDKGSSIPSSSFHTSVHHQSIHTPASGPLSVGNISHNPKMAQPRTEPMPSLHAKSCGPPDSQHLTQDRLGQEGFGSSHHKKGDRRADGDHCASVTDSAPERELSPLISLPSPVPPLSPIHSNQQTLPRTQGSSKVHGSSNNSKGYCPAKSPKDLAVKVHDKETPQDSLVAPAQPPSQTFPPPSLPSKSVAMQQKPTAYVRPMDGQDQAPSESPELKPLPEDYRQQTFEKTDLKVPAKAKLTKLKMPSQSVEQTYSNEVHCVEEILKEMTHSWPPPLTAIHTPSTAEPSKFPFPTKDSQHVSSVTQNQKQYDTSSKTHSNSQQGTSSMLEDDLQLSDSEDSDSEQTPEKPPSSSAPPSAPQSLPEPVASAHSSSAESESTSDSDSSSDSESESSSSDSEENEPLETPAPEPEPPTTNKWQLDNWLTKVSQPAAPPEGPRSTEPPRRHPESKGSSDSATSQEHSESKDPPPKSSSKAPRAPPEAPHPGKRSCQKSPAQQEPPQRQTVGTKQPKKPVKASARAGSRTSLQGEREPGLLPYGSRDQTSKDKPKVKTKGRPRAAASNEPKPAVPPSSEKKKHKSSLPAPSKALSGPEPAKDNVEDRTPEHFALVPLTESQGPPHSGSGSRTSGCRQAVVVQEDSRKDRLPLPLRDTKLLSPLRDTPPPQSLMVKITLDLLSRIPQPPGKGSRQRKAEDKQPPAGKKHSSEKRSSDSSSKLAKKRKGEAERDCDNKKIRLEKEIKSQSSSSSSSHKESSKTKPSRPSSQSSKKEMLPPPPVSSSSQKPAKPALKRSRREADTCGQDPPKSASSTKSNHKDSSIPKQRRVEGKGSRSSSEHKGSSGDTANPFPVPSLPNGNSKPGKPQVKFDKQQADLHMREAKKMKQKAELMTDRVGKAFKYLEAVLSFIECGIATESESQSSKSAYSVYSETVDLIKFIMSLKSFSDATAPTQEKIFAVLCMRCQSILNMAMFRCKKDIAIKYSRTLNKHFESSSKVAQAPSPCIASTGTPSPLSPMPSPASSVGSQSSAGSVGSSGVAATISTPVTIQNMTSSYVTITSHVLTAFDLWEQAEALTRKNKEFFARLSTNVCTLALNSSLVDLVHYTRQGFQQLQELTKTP

For CDK9 (from UniProt P50750 1-372), which binding is on record?
The binding was “binds”.

B1 was tested. Which binding did it give?
The binding was “binds”.

B2 was tested. Which binding did it give?
The binding was “binds”.
